The source gives many values for each of these; only a part stands here.
What was measured:
Assay in all cases: concentration in plasma after dosing
Mouse [1] = conditions: 4 h; dosed: 2-Hydroxy-4-methoxybenzophenone; 500 mg/kg; oral; Male; B6C3F1
Rat [2] = conditions: dosed: 2-Hydroxy-4-methoxybenzophenone, 500 mg/kg, oral, Female, F344
Rat [3] = conditions: dosed: 2-Hydroxy-4-methoxybenzophenone, 100 mg/kg, oral, Female, F344
Rat [4] = conditions: dosed: 2-Hydroxy-4-methoxybenzophenone, 100 mg/kg, oral, Male, F344
Mouse [5] = conditions: 1.5 h; dosed: 2-Hydroxy-4-methoxybenzophenone; 250 mg/kg; oral; Female; B6C3F1
Mouse [6] = conditions: 10 h; dosed: 2-Hydroxy-4-methoxybenzophenone; 500 mg/kg; oral; Male; B6C3F1
Mouse [7] = conditions: 4 h; dosed: 2-Hydroxy-4-methoxybenzophenone; 500 mg/kg; oral; Male; B6C3F1; remark: listed apart in the source
Mouse [8] = conditions: 16 h; dosed: 2-Hydroxy-4-methoxybenzophenone; 50 mg/kg; iv; Male; B6C3F1
Mouse [9] = conditions: 5 min; dosed: 2-Hydroxy-4-methoxybenzophenone; 500 mg/kg; oral; Male; B6C3F1
Mouse [10] = conditions: dosed: 2-Hydroxy-4-methoxybenzophenone, 100 mg/kg, oral, Female, B6C3F1
Mouse [11] = conditions: 6 h; dosed: 2-Hydroxy-4-methoxybenzophenone; 250 mg/kg; oral; Female; B6C3F1
Rat [12] = conditions: dosed: 2-Hydroxy-4-methoxybenzophenone, 500 mg/kg, oral, Male, F344
Mouse [13] = conditions: 5 min; dosed: 2-Hydroxy-4-methoxybenzophenone; 500 mg/kg; oral; Female; B6C3F1
Mouse [14] = conditions: 1 h; dosed: 2-Hydroxy-4-methoxybenzophenone; 50 mg/kg; iv; Male; B6C3F1
Rat [15] = conditions: dosed: 2-Hydroxy-4-methoxybenzophenone, 250 mg/kg, oral, Male, F344
Rat [16] = conditions: dosed: 2-Hydroxy-4-methoxybenzophenone, 500 mg/kg, oral, Female, F344; remark: listed apart in the source
Rat [17] = conditions: dosed: 2-Hydroxy-4-methoxybenzophenone, 100 mg/kg, oral, Female, F344; remark: listed apart in the source
Mouse [18] = conditions: 0.5 h; dosed: 2-Hydroxy-4-methoxybenzophenone; 50 mg/kg; iv; Female; B6C3F1
Rat [19] = conditions: dosed: 2-Hydroxy-4-methoxybenzophenone, 8 mg/kg, iv, Male, F344
Mouse [20] = conditions: dosed: 2-Hydroxy-4-methoxybenzophenone, 100 mg/kg, oral, Female, B6C3F1; remark: listed apart in the source
Rat [21] = conditions: dosed: 2-Hydroxy-4-methoxybenzophenone, 250 mg/kg, oral, Male, F344; remark: listed apart in the source
Mouse [22] = conditions: 6 h; dosed: 2-Hydroxy-4-methoxybenzophenone; 50 mg/kg; iv; Female; B6C3F1
Mouse [23] = conditions: 4 h; dosed: 2-Hydroxy-4-methoxybenzophenone; 500 mg/kg; oral; Female; B6C3F1
Mouse [24] = conditions: 0.5 h; dosed: 2-Hydroxy-4-methoxybenzophenone; 500 mg/kg; oral; Female; B6C3F1
Mouse [25] = conditions: dosed: 2-Hydroxy-4-methoxybenzophenone, 100 mg/kg, oral, Female, B6C3F1; remark: listed apart in the source
Mouse [26] = conditions: 1.5 h; dosed: 2-Hydroxy-4-methoxybenzophenone; 250 mg/kg; oral; Female; B6C3F1; remark: listed apart in the source
Mouse [27] = conditions: 5 h; dosed: 2-Hydroxy-4-methoxybenzophenone; 250 mg/kg; oral; Male; B6C3F1
Mouse [28] = conditions: 10 h; dosed: 2-Hydroxy-4-methoxybenzophenone; 500 mg/kg; oral; Male; B6C3F1; remark: listed apart in the source
Rat [29] = conditions: 12 h; dosed: Perfluorohexanoic Acid; 80 mg/kg; oral; Female; Harlan Sprague Dawley
Rat [30] = conditions: 1 h; dosed: Perfluorohexanoic Acid; 40 mg/kg; Female; Harlan Sprague Dawley
Rat [31] = conditions: dosed: Perfluorohexanoic Acid, 160 mg/kg, oral, Female, Harlan Sprague Dawley
Rat [32] = conditions: dosed: Perfluorohexanoic Acid, 160 mg/kg, oral, Male, Harlan Sprague Dawley
Rat [33] = conditions: dosed: Perfluorohexanoic Acid, 160 mg/kg, oral, Male, Harlan Sprague Dawley; remark: listed apart in the source
Rat [34] = conditions: dosed: Perfluorohexanoic Acid, 160 mg/kg, oral, Male, Harlan Sprague Dawley; remark: listed apart in the source

O=C(c1ccccc1)c1ccc(O)cc1O [2,4-Dihydroxybenzophenone]
Conditions	concentration in plasma [ng/mL]
Mouse [1]	320
Mouse [5]	266
Mouse [6]	99.1
Mouse [7]	567
Mouse [8]	189
Mouse [9]	543
Mouse [11]	42
Mouse [13]	2040
Mouse [14]	284

Conditions	concentration in plasma [ng/mL]
Mouse [10], 0.5 h	182
Mouse [10], 0.75 h	92.2
Mouse [10], 1 h	58
Mouse [10], 1.5 h	79.2
Mouse [10], 4 h	48.4
Mouse [10], 5 min	738
Mouse [10], 6 h	42.1
Rat [2], 1 h	1250
Rat [2], 8 h	295
Rat [3], 1 h	285
Rat [3], 6 h	53.3
Rat [4], 1.5 h	86.1
Rat [4], 8 h	36.4
Rat [12], 1 h	1610
Rat [12], 8 h	228
Rat [15], 1.5 h	341
Rat [15], 8 h	101
Rat [16], 1 h	1140
Rat [16], 8 h	213
Rat [17], 1.5 h	162
Rat [17], 8 h	59.1

COc1ccc(C(=O)c2ccccc2)c(O)c1 [2-Hydroxy-4-methoxybenzophenone]
Conditions	concentration in plasma [ng/mL]
Mouse [18]	2300
Mouse [22]	23.8
Mouse [23]	147
Mouse [24]	1470
Mouse [26]	69.5
Mouse [27]	11.3
Mouse [28]	15.5

concentration in plasma [ng/mL]
Conditions	0.5 h	0.75 h	1 h	1.5 h	4 h	5 h	5 min	6 h	8 h
Mouse [20]	51.5	23	19.4	14.3	16.3	6.12	55.5	28.3	–
Mouse [25]	40.8	118	37.1	19	–	7.31	40.7	39.9	–
Rat [19]	–	–	219	–	–	–	–	24.6	–
Rat [21]	–	–	–	316	–	–	–	–	22.9

O=C(O)C(F)(F)C(F)(F)C(F)(F)C(F)(F)C(F)(F)F [Perfluorohexanoic Acid]
Conditions	concentration in plasma [ng/mL]
Rat [29]	484
Rat [30]	9860

Conditions	concentration in plasma [ng/mL]
Rat [31], 0.25 h	136000
Rat [31], 6 h	4320
Rat [32], 0.5 h	328000
Rat [32], 9 h	14000
Rat [33], 1 h	215000
Rat [33], 24 h	1700
Rat [34], 3 h	234000
Rat [34], 5 min	103000

— EPA's CvTdb concentration-time database
